# Results from PubChem BioAssay AID2685 (National Center for Advancing Translational Sciences (NCATS), 2010).
# Some of the results follow. These are further read-outs of the screen, such as a control signal, another cell line or another target. No call is given for them. The list favours compounds with an active or inconclusive main result. Potencies come from curve fits of mixed quality, noted in brackets.
# Assay: qHTS Assay for Lipid Storage Modulators in Drosophila S3 Cells;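 on cell number change: cells counted by Cell Tracker Red CMTPX staining in the red channel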
# Conditions: BODIPY lipid droplet fluorescence, 18-24 h; for cell number change: measured here: cell count max response, cells fed with added oleic acid
# Procedure, shortened: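 Drosophila S3 cells got compounds at several concentrations plus oleic acid (400 uM solution). Laser-scanning cytometry with 488 nm excitation read lipid droplets at 500-530 nm and cells at 575-640 nm. Percent activity was relative to 20 uM Triacsin C.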
# [1] = measured here: lipid fluorescence (Fed channel) AC50, cells fed with added oleic acid
# [2] = measured here: cell number channel AC50, cells fed with added oleic acid
SMILES,cell number change [%],AC50 [1],AC50 [2]
O=C(Nc1cc(C(F)(F)F)ccc1N1CCOCC1)C1=NN(c2ccccc2)C(=O)CC1,-10.9,"18.4 µM [falling, partial curve]",–
Cc1ccc(NC(=O)CCc2nc(-c3cccs3)no2)c(Br)c1,–,"6.51 µM [rising, partial curve]",–
COc1ccc2c(-c3cccnc3)cc(=O)[nH]c2c1,–,"6.51 µM [rising, partial curve]","6.51 µM [rising, single point]"
Cc1cc(Cl)ccc1OCCCC(=O)N1CCCCC1,-7.5,"3.26 µM [rising, single point]","2.91 µM [rising, single point]"
CCOc1cc(N2CCOCC2)c(OCC)cc1NC(=O)Cc1cccc(OC)c1,-5.16,"0.116 µM [rising, full curve, poor fit]",–
CS(=O)(=O)N1CCc2cc(S(=O)(=O)NCCNS(=O)(=O)c3ccc4c(c3)CCN4S(C)(=O)=O)ccc21,-56.4,"0.184 µM [falling, full curve]","0.103 µM [falling, full curve]"
CC(/C=C1\SC(=S)N(NC(=O)c2cccc(O)c2)C1=O)=C\c1ccccc1,50.1,"32.6 µM [rising, single point]","6.51 µM [rising, single point]"
COC(=O)c1ccc(/C=C2/SC(=S)N(CCCC(=O)Nc3ccccn3)C2=O)cc1,-1.72,"1.16 µM [rising, partial curve]",–
Cc1ccc(-c2noc(Cn3nc(C(=O)O)c4ccccc4c3=O)n2)cc1,1.32,"1.26 µM [falling, full curve, poor fit]",–
Cc1ccccc1NC(=S)NNC(=O)c1cccc(Br)c1,44.7,–,"23.1 µM [rising, single point]"
FC(F)(F)c1cc(Cl)c2nnc(C(F)(F)Cl)n2c1,-28.9,"0.146 µM [falling, full curve, poor fit]","0.184 µM [falling, full curve]"
CCC(=O)N(CC)c1nc(-c2ccc(OC)cc2)cs1,-18.5,"32.6 µM [falling, partial curve, poor fit]",–
O=C(CS(=O)Cc1ccccc1Cl)Nc1ccccc1Cl (centres undefined),–,"4.61 µM [falling, single point]",–
COc1ccc(CCNC(=O)COc2cc(O)c3c(c2)OC(C)(C)CC3=O)cc1,-2.27,"16.4 µM [falling, single point]",–
Cc1ccc(NC(=O)Cn2nnc(C(=O)Nc3ccc(F)c(Cl)c3)c2N)cc1,53.4,–,"13 µM [rising, partial curve, poor fit]"
Cc1cc(C)c(NC(=O)CN(C)C(=O)CNC(=O)c2cccs2)c(C)c1,-8.56,"16.4 µM [falling, partial curve]",–
C=CCNS(=O)(=O)c1cc(S(=O)(=O)NCC=C)c(OC)cc1OC,-50.2,"0.13 µM [falling, full curve]","0.164 µM [falling, full curve, poor fit]"
O=Cc1ccc(Sc2nnc(-c3ccccc3)o2)c([N+](=O)[O-])c1,-1.9,"6.51 µM [falling, single point]",–
CC(=O)c1cc(C)ccc1OC(=O)c1cccnc1,-2.41,"1.84 µM [rising, partial curve]",–
COC(=O)C1=C(CS(=O)(=O)c2cc(OC)ccc2OC)NC(=O)NC1c1ccc(O)c(OC)c1 (centres undefined),15.8,–,–

# Individual results from the entries so far.
# AC50 [1] with Cc1ccc(NC(=O)CCc2nc(-c3cccs3)no2)c(Br)c1 reads 6.51 µM [rising, partial curve]
# cell number change [%] with COC(=O)C1=C(CS(=O)(=O)c2cc(OC)ccc2OC)NC(=O)NC1c1ccc(O)c(OC)c1 (centres undefined) reads 15.8
# cell number change [%] with Cc1ccc(-c2noc(Cn3nc(C(=O)O)c4ccccc4c3=O)n2)cc1 reads 1.32

# Further records.

SMILES,cell number change [%],AC50 [1],AC50 [2]
CC1CCN(C(=O)CSc2nnc(-c3ccccc3F)o2)CC1,6.41,–,–
O=C(CNC1CCCCCC1)Nc1ccccc1N1CCCCC1,-25,"23.1 µM [falling, partial curve, poor fit]",–
CCN(CC)S(=O)(=O)c1cccc(C(=O)c2c(C)cc3ccccn23)c1,35.4,"18.4 µM [rising, partial curve]","11.6 µM [rising, partial curve, poor fit]"
Cc1cccc(OCCn2cc(/C=N/NC(=O)c3ccncc3)c3ccccc32)c1,-9.21,–,–
CN(C)CCSc1nc(-c2ccccc2)nc2c1COC(C)(C)C2,-10.3,"2.59 µM [falling, single point]",–
Cc1c(NC(=O)c2noc(C(C)C)c2[N+](=O)[O-])c(=O)n(-c2ccccc2)n1C,-5.7,"0.00651 µM [falling, full curve, poor fit]",–
CCCCn1nc(C(=O)N(C)CC(=O)Nc2cccc(F)c2)c2ccccc2c1=O,50,"6.51 µM [falling, partial curve, poor fit]","29.1 µM [rising, single point]"
O=C(c1ccco1)N1CCN(C(=S)Nc2ccccc2Cl)CC1,9.97,"6.51 µM [falling, single point]",–
CC1(NC(=O)Cc2ccc(Cl)c(Cl)c2)CCS(=O)(=O)C1 (centres undefined),12.9,"0.58 µM [falling, single point]",–
CSc1sc(C(=O)Nc2ccc(F)cc2F)c2c1C=CCC2,23.7,"29.1 µM [rising, single point]",–
COc1ccc(Nc2ncnc3c2cnn3Cc2ccccc2)cc1,-30.8,–,"13 µM [falling, partial curve, poor fit]"
O=C(CN1C(=O)NC(Cc2ccccc2)C1=O)Nc1ccc(OC(F)F)cc1 (centres undefined),–,"3.66 µM [falling, partial curve]","4.11 µM [falling, single point]"
CCOC(=O)c1cnc(SCC(=O)Nc2ccc3c(c2)OCCO3)nc1N,-0.369,"16.4 µM [rising, single point]",–
COc1ccc(CCNC(=O)CSc2nnnn2-c2ccccc2)cc1,3.37,–,–
CCN1CCN(c2ccc(NC(=O)c3cnccn3)cc2)CC1,-15,"2.06 µM [rising, partial curve]","2.59 µM [rising, partial curve]"
COc1ccc(-c2cc(C(=O)NCCc3ccc(S(N)(=O)=O)cc3)c3ccccc3n2)cc1,-62,–,–
O=C(c1cccc(COCC(F)(F)C(F)F)c1)N1CCN(c2ccccc2)CC1,-16.6,"16.4 µM [rising, partial curve]",–
CCNC(=O)COC(=O)C1CCN(S(=O)(=O)c2ccc3c(c2)OCCO3)CC1,-3.37,–,–
Cc1oc(-c2cccc(Cl)c2)nc1CSc1nc2c(c(=O)[nH]1)CCC2,32.7,–,–
CCOc1cccc(C(=O)NC(c2ccccc2)C(C)C)c1 (centres undefined),22.6,"3.66 µM [rising, full curve, poor fit]",–

SMILES,cell number change [%],AC50 [1],AC50 [2]
Cc1cnc(C(=O)NCC(=O)Nc2ccccc2Br)cn1,0.5,–,"0.00411 µM [falling, full curve, poor fit]"
O=C1CC2(CCCCC2)Oc2ccc(O)cc21,-28.3,"0.0326 µM [falling, full curve]","0.058 µM [falling, full curve, poor fit]"
Cc1ccccc1NC(=O)/C=C/c1ccc([N+](=O)[O-])s1,–,"7.31 µM [falling, partial curve]",–
COC(=O)c1ccc(CNC(=O)COC(=O)C2CC3C=CC2C3)cc1 (centres undefined),78.2,–,"29.1 µM [rising, single point]"
CC1CCC2(CC1)NC(=O)N(CC(=O)N1CCN(C(=O)c3cccs3)CC1)C2=O (centres undefined),-7.05,"29.1 µM [rising, single point]",–
CCc1ccc(-c2nn(-c3ccccc3C)cc2C(=O)N2CCN(C3CCS(=O)(=O)C3)CC2)cc1 (centres undefined),2.72,"29.1 µM [rising, single point]",–
CCCCOc1ccc(C(=O)NCC(=O)NCC(c2ccc(OC)cc2)N2CCOCC2)cc1 (centres undefined),-0.134,"3.66 µM [rising, full curve, poor fit]",–
CC(=O)N1c2ccc(S(=O)(=O)NCCC(=O)Nc3ccc(OC(F)(F)F)cc3)cc2CC1C (centres undefined),-21.9,"29.1 µM [falling, single point]",–
COc1ccc(N(CC(=O)NCCSc2ccccn2)S(=O)(=O)c2ccccc2)cc1OC,-24.8,–,–
CN1CCC(N2CCN(c3cccc(C(F)(F)F)c3)CC2)CC1,-75.1,–,"29.1 µM [falling, single point]"
Cc1ccc(Sc2ccc(C(=O)N(C)C)cc2[N+](=O)[O-])cc1,56.6,–,"0.0366 µM [rising, full curve]"
Cn1c(-c2cccc(Br)c2)cnc1NCc1ccccc1O,4.91,–,–
Cc1c(N2C(=O)/C(=C3/C(=O)N(C)c4ccccc43)SC2=S)c(=O)n(-c2ccccc2)n1C,-23.6,"14.6 µM [falling, partial curve, poor fit]",–
Cc1ccc(CCNC(=O)c2nnn(-c3cc(C)cc(C)c3)c2N)cc1,–,"0.58 µM [rising, single point]",–
COc1cccc(/C=C(/C(=O)OCC(=O)NC2CCCCCCC2)c2ccccc2)c1,5.13,"1.84 µM [rising, full curve]",–
CCCC(=O)OC/C(O)=C(\C#N)c1nc2ccccc2[nH]1,19.3,"0.794 µM [rising, full curve, poor fit]",–
Cc1ccccc1NC(=O)C1(NC(=O)c2cccc(N3C(=O)CSC3c3ccccc3)c2)CCCCC1 (centres undefined),-17.1,–,–
O=c1[nH]cc(S(=O)(=O)N2CCCc3ccccc32)c(=O)[nH]1,-108,–,"20.6 µM [falling, partial curve]"
O=C(NCCCN=C1NS(=O)(=O)c2ccccc21)c1ccncc1,-34.2,"1.16 µM [falling, full curve]","29.1 µM [falling, partial curve, poor fit]"
